The values that follow come from patent US8431596B2 (Cancer Research Technology Limited, priority 2007, dated 2013).

For test [1], the target named is T1, AXL (human catalytic domain) (Homo sapiens, UniProt P30530).
T1 construct: purchased Upstate Ltd. 14-512
T1 sequence (P30530 473-894): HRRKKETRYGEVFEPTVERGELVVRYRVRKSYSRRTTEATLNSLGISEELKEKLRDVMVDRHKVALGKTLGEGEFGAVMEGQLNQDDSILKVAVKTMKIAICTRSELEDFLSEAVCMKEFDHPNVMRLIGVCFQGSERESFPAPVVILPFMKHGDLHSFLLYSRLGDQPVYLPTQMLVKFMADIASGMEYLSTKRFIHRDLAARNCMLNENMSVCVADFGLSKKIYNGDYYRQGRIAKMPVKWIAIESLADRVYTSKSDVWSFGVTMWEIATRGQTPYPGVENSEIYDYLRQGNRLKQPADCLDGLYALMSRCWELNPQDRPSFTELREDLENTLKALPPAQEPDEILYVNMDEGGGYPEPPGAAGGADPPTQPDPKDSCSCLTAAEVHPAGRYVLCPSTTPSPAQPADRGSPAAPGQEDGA
The test can be described thus: AXL (human catalytic domain) Enzyme Activity Assay (IMAP fluorescence polarisation). It counts as biochemical. How it is done: Biological Methods AXL (human catalytic domain) Enzyme Activity Assay Reagents
Kinase Assay Reaction Buffer: This consisted of 20 mM HEPES pH 7.0, 10 mM MgCl2, 1 mM DTT, […], 0.01% Triton X100 (v/v), and 0.01% BSA (w/v). All buffer components were purchased from Sigma-Aldrich at reagent grade or higher.
Kinase: Recombinant AXL isoform 1 (aa473-894 corresponding to Genbank Accession Number NP 068713) at 2 mg/mL (20.8 μM) was purchased from Upstate Ltd. (Product code 14-512, lot #28164U). The enzyme was stored at −80° C. and a working stock was prepared to a concentration of 30 nM by diluting 20.8 μM stock 1:693 in cold (4° C.) 1× Reaction Buffer. […]
ATP: Supplied by Sigma (product code A-7699). […] Final ATP concentration in the assay was 150 μM; this concentration represents the KM.ATP for this enzyme calculated in this assay. […]
1 μL samples of test compounds in 10% DMSO/water were added to “test” wells by dry-spotting using a Matrix Platemate Plus. […] The FP on a Tecan Ultra Plate reader was recorded as a single read at Ex485 Em535.
Percentage inhibition was calculated based on activity of the test sample minus the average values in the blank wells relative to the average values measured in control wells minus the average values in the blank wells.
IC50 values were calculated from 10 point dose sigmoid ‘dose-response’ curves using XIfit software (IDBS Inc, USA). […]
Background: Fluorescence polarisation rises when a labelled molecule tumbles more slowly, as on binding a larger partner.

In test [2] the test system is Axl activation via the downstream phosphorylation of Akt (serine 473). Nature of the test: AXL Inhibition Cell Based ELISA Assay (FACE kit, Gas6-stimulated MDA-MB-231 cells). The conditions noted are these: Homo sapiens, first data set, Gas6 200 ng/ml, pS473 Akt. How it is done: AXL Inhibition Cell Based ELISA Assay
This cell based ELISA assay is a simple cell-based method used to monitor activation of proteins by phosphorylation. The Active Motif, Fast Activated Cell-based ELISA (FACE) kit (Active Motif Cat No: 48120) was used in this case to monitor the inhibition, by test compounds, of Axl activation via the downstream phosphorylation of Akt (serine 473). In this system, cells are cultured in 96 well plates and treated with test compounds and Axl is activated by the introduction of Gas6 (Axl ligand). The inhibition of Axl can be directly assessed via the reduction of pS^473 Akt levels.
Active Motif FACE Kit reagents (Active Motif Cat. No: 48120(AKT)).
10% hydrogen peroxide (Sigma H1009).
10% Sodium azide (Sigma 7128).
37% Formaldehyde (Sigma F8775).
Axl/Fc conjugate (R&D Systems 154-AL).
Recombinant mouse Gas6 (R&D Systems 986-GS-025).
All cell incubations were carried out in humidified incubators set at 5% CO2 and 37° C. […]
Immunostaining (carried out as outlined in FACE kit protocol). […] 100 μL developing solution was added to each well and monitored for colour change to medium to dark blue (2 to 20 minutes). 100 μL of stop solution was then added and absorbance was read at 450 nm within 5 minutes of addition.
Crystal Violet cell staining. After reading absorbance at 450 nm, the plates were washed twice with 200 μL wash buffer and twice with 200 μL PBS. […]
In general terms: ELISA stands for enzyme-linked immunosorbent assay.

Usually IC50 stands for the concentration at which inhibition is half-maximal. Consider `COc1ccc(-c2nccc3nc(Nc4ccc(OCCN5CCCC5)cc4)nn23)cc1` [YY-001, [5-(4-Methoxy-phenyl)-[1,2,4]triazolo[1,5-c]pyrimidin-2-yl]-[4-(2-pyrrolidin-1-yl-ethoxy)-phenyl]-amine], for which the IC50 in test [1] (first data set, recombinant AXL isoform 1 aa473-894, 150 μM ATP) is < 1000 nM; in test [1] (further data set (WW-001 through WW-169, XX-001 through XX-469, YY-001 through YY-016, ZZ-001 through ZZ-003), 150 μM ATP), 100 to 1000 nM; in test [2], 3000 nM.
